# Test results published in patent publication US20100266503A1, “Breast Cancer Methods, Medicaments and Agents” (priority 2007, published 2010).
# At least one compound was matched to its structure with a doubt left.
# Tested on: MDA-MB-231, T47-D and MCF-7 breast cancer cell lines
# Test: Proliferation of breast cancer cell lines treated with GSIs for 72 h, Coulter Counter cell count
# Format: cell-based
# Settings: tested 10 nM to 50 μM
# Description: Graphs illustrating the effects of three GSIs: (A) DAPT (N-[N-(3,5-Difluorophenacetyl-L-alanyl)]-S-phenylglycine t-butyl ester), (B) Compound E ((2S)-2-{[(3,5-Difluorophenyl)acetyl]amino}-N-[(3S)-1-methyl-2-oxo-5-phenyl-2,3-dihydro-1H-1,4-benzodiazepin-3-yl]propanamide) and (C) GSI1 (Z-Leu-Leu-Nle-CHO) on proliferation in three breast cancer cell lines (MDA-MB-231, T47-D and MCF-7 cells). Cells were treated with the GSIs at different concentrations for 72 hours and the number of cells counted.
# FIG. 6 illustrates the effect of three GSIs, DAPT, Compound E and GSI1 on proliferation in three breast cancer cell lines, MDA-MB-231 [Oestrogen receptor (ER) negative, epidermal growth factor receptor (EGFR) and HER-2 strongly positive, increasingly metastatic T47-D-MCF-MDA], T47-D [weakly ER positive, progesterone receptor positive, strongly EGFR (HER-1, cERB-B1) positive and HER-2(c-ERB-B2) positive] and MCF-7 [highly ER positive and very weakly EGFR and HER-2 positive if at all]. The breast cancer cell lines were treated with the 3 GSIs for 72 h. 20,000 cells were seeded into 24 well plates in triplicate and allowed to adhere overnight. […] After 72 hours the media was removed and the adherent cells removed and counted on a Coulter Counter. […]
structure (smiles),measurement,value
"C[C@H](NC(=O)Cc1cc(F)cc(F)c1)C(=O)N[C@H](C(=O)OC(C)(C)C)c1ccccc1 [DAPT, N-[N-(3,5-Difluorophenacetyl-L-alanyl)]-S-phenylglycine t-butyl ester]",concentration with a major effect on cell numbers,10 or 50 μM
